# Screening data, single-dose tests

From ChEMBL document CHEMBL3988442, “University of Dundee, Small-Polar-MMV Screening Library” (2021).

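Assay of Toxoplasma gondii numbers, read through their beta-galactosidase reporter with a colour substrate. Tested at 50 µM. Higher reads as fewer parasites (inferred from which compounds were picked for retests). Size under these conditions: about 18,000 compounds, about 170 of them at 50% or above in at least one test.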

Each number is a percent effect as filed.
The record does not define 0% and 100%; most values in the screen are far below 50% and negative numbers occur (in some assays of this library far below -100).
Compounds were drawn at random from those tested, without regard to their results.

{"smiles": "CC(CN(CCO)Cc1nccn1C)N1CCCC1", "stereo": "stereo not given", "percent effect": 9.485}
{"smiles": "CN(CCCNC(=O)CC1CCNC1)c1ccccc1", "stereo": "stereo not given", "percent effect": -2.259}
{"smiles": "Cn1ncc(N2CCCC2)c(Br)c1=O", "percent effect": 12.94}
{"smiles": "Cn1ncnc1CNS(=O)(=O)c1c(F)cccc1Br", "percent effect": 3.054}
{"smiles": "CCOC(C(=O)NCC(C)(C)C(N)=O)c1ccccc1", "stereo": "stereo not given", "percent effect": -16.61}
{"smiles": "Cc1ccn(CCCOC(C)C)c(=O)c1C#N", "percent effect": -5.916}
{"smiles": "CC(=O)Nc1nc2c(s1)CCCC2", "percent effect": -6.719}
{"smiles": "COC(=O)[C@@H](NC(=O)C1CCCO1)C(C)(C)C", "stereo": "stereo not given in full", "percent effect": -5.851}
{"smiles": "NC1CCCN(c2ccc(C(F)(F)F)cn2)C1", "stereo": "stereo not given", "percent effect": -10.27}
{"smiles": "CC(=O)NC1CCN(C2CCCCC2)CC1", "percent effect": -2.49}
{"smiles": "CC1(CO)CCCN1", "stereo": "stereo not given", "percent effect": 3.889}
{"smiles": "CNC(=O)c1cccc(CN(C)CC(O)COC)c1", "stereo": "stereo not given", "percent effect": -0.9875}
{"smiles": "O=C1CCCCNC1", "percent effect": -1.555}
{"smiles": "Cc1cc(NCc2cccnc2)n2ncnc2n1", "percent effect": -10.27}
{"smiles": "CC(CNc1ccccc1)NC(=O)c1ccncc1F", "stereo": "stereo not given", "percent effect": -6.543}
{"smiles": "NCC(=O)N(CC1CCCCC1)C1CC1", "percent effect": -6.376}
{"smiles": "CCc1ccccc1N1CC(C(=O)NC)CC1=O", "stereo": "stereo not given", "percent effect": 7.637}
{"smiles": "c1cn(-c2cc(N3CCSCC3)ncn2)cn1", "percent effect": 2.078}
{"smiles": "CN(CCCS(=O)(=O)N(C)C)Cc1nc(C2CC2)no1", "percent effect": -0.2056}
{"smiles": "CN(C)CCCNC1=NS(=O)(=O)c2ccccc21", "percent effect": -7.334}
{"smiles": "COc1cc(S(=O)(=O)NCc2ccnn2C)ccc1F", "percent effect": -4.079}
{"smiles": "O=C(CC1CCS(=O)(=O)C1)NCc1cc(F)ccc1F", "stereo": "stereo not given", "percent effect": 0.5425}
{"smiles": "CC1CNCC2(CCOCC2)O1", "stereo": "stereo not given", "percent effect": 9.404}
{"smiles": "CC(=O)N[C@@H]1CN(Cc2cccc(Br)c2)C[C@H]1CO", "percent effect": -1.293}
{"smiles": "CC(C)N(C)C(=O)CC1CCNCC1", "percent effect": -0.5977}
{"smiles": "CC(C)(CO)NS(=O)(=O)c1ccc(Cl)c(C(N)=O)c1", "percent effect": -5.146}
{"smiles": "Cn1cncc1CCNC(=O)c1cncc(F)c1", "percent effect": 2.383}
{"smiles": "O=C(NCCCOC(F)F)NCc1ccc(Br)o1", "percent effect": -9.411}
{"smiles": "CCC(C)CS(=O)(=O)Nc1ccc(F)c(C(N)=O)c1", "stereo": "stereo not given", "percent effect": 12.83}
{"smiles": "C[C@@]1(O)CCN(C(=O)CN)C[C@@H]1Cc1ccccc1", "percent effect": -3.042}
{"smiles": "CNC(=O)CSc1nnnn1-c1ccc(C(C)C)cc1", "percent effect": -4.757}
{"smiles": "CCS(=O)(=O)N1CCCC1CN(C)CCOC", "stereo": "stereo not given", "percent effect": 5.617}
{"smiles": "CNC(=O)CS(=O)(=O)c1nccn1C", "percent effect": -1.894}
{"smiles": "O=C(CNC(=O)c1ccccc1F)Nc1ccsc1", "percent effect": 1.842}
{"smiles": "CCc1nc2c(c(NC)n1)CCNCC2", "percent effect": 8.519}
{"smiles": "Cc1noc(C(C)Nc2ccc3c(c2)CCC(=O)N3)n1", "stereo": "stereo not given", "percent effect": -14.26}
{"smiles": "CC(c1ccccn1)N(C)C(=O)c1cscn1", "stereo": "stereo not given", "percent effect": -3.074}
{"smiles": "C1CC(OC2CCOCC2)CCN1", "percent effect": -8.505}
{"smiles": "CCC(CC)n1nc(C)cc1C(=O)NC(C)(C)CO", "percent effect": -10.36}
{"smiles": "Cc1cc(NC(=O)NCC2CCS(=O)(=O)C2)no1", "stereo": "stereo not given", "percent effect": 32.47}
{"smiles": "CNC(=O)C(CC(C)C)NC(=O)c1ccc(Br)c(O)c1", "stereo": "stereo not given", "percent effect": 0.027}
{"smiles": "CCN(Cc1cccc(F)c1)C(=O)CC1(N)CCC1", "percent effect": -3.148}

For reference, 2 entries once more:

Result for COC(=O)[C@@H](NC(=O)C1CCCO1)C(C)(C)C (stereo not given in full) was -5.851%.
Result for CNC(=O)CS(=O)(=O)c1nccn1C was -1.894%.